Source: ChEMBL document CHEMBL3988442, “University of Dundee, Small-Polar-MMV Screening Library” (2021).

Protein sequences, listed by entry. Tags and fused reporters are not part of them.
UniProt E9BF75, entry or part of it: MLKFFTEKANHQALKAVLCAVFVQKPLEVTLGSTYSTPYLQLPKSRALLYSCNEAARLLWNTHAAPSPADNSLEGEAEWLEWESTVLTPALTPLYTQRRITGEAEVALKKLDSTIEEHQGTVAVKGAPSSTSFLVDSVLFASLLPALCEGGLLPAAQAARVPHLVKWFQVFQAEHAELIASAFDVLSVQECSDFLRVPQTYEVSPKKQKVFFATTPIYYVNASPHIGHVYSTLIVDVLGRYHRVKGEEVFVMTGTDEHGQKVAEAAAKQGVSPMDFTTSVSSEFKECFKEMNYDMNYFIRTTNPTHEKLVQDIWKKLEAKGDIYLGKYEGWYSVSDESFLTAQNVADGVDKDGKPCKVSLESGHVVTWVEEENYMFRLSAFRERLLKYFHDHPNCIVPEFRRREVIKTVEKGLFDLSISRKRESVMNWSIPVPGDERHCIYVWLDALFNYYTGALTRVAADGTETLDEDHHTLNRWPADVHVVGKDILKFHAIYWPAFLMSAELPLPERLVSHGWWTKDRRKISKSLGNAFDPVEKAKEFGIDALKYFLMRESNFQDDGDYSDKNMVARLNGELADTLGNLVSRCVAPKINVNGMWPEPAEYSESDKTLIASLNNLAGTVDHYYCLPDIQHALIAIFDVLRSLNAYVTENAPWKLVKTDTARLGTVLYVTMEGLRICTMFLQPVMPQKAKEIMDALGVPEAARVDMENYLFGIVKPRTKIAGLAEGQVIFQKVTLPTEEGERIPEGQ

Mtb heat-shock: 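Assay on Mycobacterium tuberculosis, filed only as a heat shock assay from Cornell; the read-out is not stated. The concentration is filed as 10 mM, unlikely as a test dose, so the dose is not known. Direction is inferred from retests: higher values go with stronger inhibition. About 69,000 compounds were tested under these conditions; 1.4% (about 930) showed 50% or more at least once.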
LdMetRS: 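Methionyl-tRNA synthetase (putative), Leishmania donovani (UniProt E9BF75). Primary screen of methionyl-tRNA synthetase; the read-out is not stated. The test concentration is not given. Values are per cent inhibition. Size under these conditions: about 68,000 compounds, about 24 of them at 50% or above in at least one test.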

Results are percentages, as filed. The controls that fix the scale are not given in the record; negative values are as filed. The compounds are a random part of those screened. A dash means the value is not listed here; it may have been measured.

SMILES,Mtb heat-shock,LdMetRS
CSCc1noc(CN2CCC3(CC2)CC(=O)N(CC=C(C)C)C3)n1,-4.541%,11.8%
COc1cc2c(cc1OC)S(=O)(=O)N(Cc1ccccc1)C2=O,29.89%,9.507%
CN(C)c1cc(C(=O)N2CCCCC2Cn2cccn2)ccn1 (stereo not drawn),-7.013%,23.2%
O=C(NCc1ccco1)[C@H]1C[C@@H]2CCN(c3cccc(F)c3)C[C@H]2O1,-,7.945%
CC(C)(C)c1nc(C(C)(C)NC(=O)C2CC(=O)N(CC3CC3)C2)no1 (stereo not drawn),3.818%,23.46%
CCCN1CCN(Cc2nccn2CC)C(C)C1 (stereo not drawn),-12.47%,3.81%
[H][C@]12CC[C@]([H])(CN(S(=O)(=O)c3ccc(OC)cc3)C1)N(CCOC)C2=O,-5.083%,-
CC(C)NC(=O)N1CCN2C(=O)OC[C@H]2C1,-,5.263%
O=C1CCCN1Cc1nc(-c2ccsc2)no1,-44.06%,16.33%
COCCOc1ccc(NC(=O)N(CCO)C2CC2)cn1,-0.9452%,-0.3226%
CN(C)CCCNCCC(Cc1ccccc1)C1CCOC(C)(C)C1 (stereo not drawn),-,19.41%
CC(C)NC(=O)N1CCC2(CC(C(=O)NCc3cccnc3)=NO2)C1 (stereo not drawn),-1.896%,11.3%
CC(C)CN1CCC2(C=C(C(=O)NC3CC3)c3ccccc32)CC1.O=C(O)C(F)(F)F,-0.1524%,-
NC(=O)NC(=O)CCn1ccc(-c2ccc(F)cc2)n1,3.892%,15.71%
Cn1c(CN2CCCCCC2)cc(=O)c(O)c1CN1CCCC1,-21.66%,8.943%
CC(O)CCN(C)S(=O)(=O)Cc1ccc(Cl)c(Cl)c1 (stereo not drawn),-1.39%,15.86%
O=C(O)C(F)(F)F.[H][C@@]12CCN(CCc3ccccc3)C[C@@]1([H])O[C@@H](C(=O)NCCOC)C2,5.304%,-
CN(C)C(=O)CN1CCCCC1c1nc(N)ncc1-c1ccccc1 (stereo not drawn),2.42%,13.59%
COCCN(Cc1ccco1)c1ncc(C#N)cc1Cl,-22.25%,2.156%
O=C(NCCNc1ncccn1)C1CC(=O)N(Cc2ccccn2)C1 (stereo not drawn),-12.7%,2.761%
CN(C)c1ncnc2c1CCN(c1ccccc1)CC2,-14.55%,1.754%
O=C(O)C(F)(F)F.[H][C@]12CCC[C@@H](CN3CCOCC3)[C@@]1([H])CN(c1ccc(C)nn1)C2,-12.26%,-
COc1cccc(Cn2cc(C3=CCN(CCO)CC3)cn2)c1,-2.266%,13.84%
c1ccc(CN2C[C@@H]3CC[C@H](C2)N(Cc2nnc(C4CC4)o2)C3)cc1,-,22.06%
CCC(CO)N(Cc1ccsc1)Cc1ccccc1C(=O)O (stereo not drawn),16.2%,10.92%
Cc1ccc(N2CCCc3sc(C(=O)NCCC#N)nc32)nn1,-,12.78%
O=C(Cc1ccon1)N1CCN(c2ccc(F)cc2Cl)CC1,-28.81%,24.46%
c1coc(CN2Cc3ccnn3CC(COCC3CC3)C2)c1 (stereo not drawn),-,8.591%
Cc1cc(C)n(C2CN(C(=O)Cn3c(C)cc(=O)c4ccccc43)C2)n1,-19.6%,11.81%
Cl.Fc1ccc(CN2CCC(c3n[nH]c4ncccc34)CC2)cc1F,-21.35%,-
c1ccc(-c2nnc(CN3CCOC(Cn4cccn4)C3)o2)cc1 (stereo not drawn),-3.439%,23.38%
O=C(CNc1cccc2c1CCCC2)Nc1ccccc1Br,35.39%,10.68%
CN(C)CCN(Cc1ccc(F)cc1)C(=O)c1ccn(C)c(=O)c1,7.279%,11.48%
CCc1nc(NCCc2nc(C)c(C)s2)c2cnn(C)c2n1,-16.9%,9.645%
Cc1nc(NC2CCS(=O)(=O)CC2)cc(C2CCCNC2)n1 (stereo not drawn),-3.089%,10.8%
CN1CCN(C(=O)c2cc3sccc3n2Cc2ccccc2F)CC1,-31.72%,17.69%
O=C(O)C1CCCN(C(=O)CCn2ccc3c(Br)cccc32)C1 (stereo not drawn),-0.8722%,18.66%
CCC1=N[C@@]2(CC[C@@H]3CN(C(=O)NCC(C)C)C[C@@H]32)C(=O)N1CC(C)C,-,14.64%
CC(O)CN1CCC(CNCc2cccc(OC(C)C)c2)CC1 (stereo not drawn),-22.7%,11.11%
CC(C)(N)C(=O)N1CCCC1c1cncc(Oc2ccccc2)n1 (stereo not drawn),-7.493%,11.3%
O=C(C1=CC2(CCN(CCO)CC2)c2ccccc21)N1CCCC1.O=C(O)C(F)(F)F,-30.07%,-
C[S+]([O-])c1nncn1CC(=O)c1cccc(Br)c1 (stereo not drawn),39.55%,15.66%
CCN(CC)C(=O)[C@@H]1C[C@H](N)CN1C(=O)c1cc2c([nH]c1=O)CCC2,13.22%,10.75%
Cl.Cl.Clc1cccc(C[C@@H]2NCCC[C@@H]2Nc2ccccc2)c1,104.8%,-
CN(Cc1cc(-c2ccncc2)no1)Cc1nccn1C,25.23%,7.904%
CC(C)c1cc(C(=O)N(C)Cc2cccc3ncccc23)n(C)n1,1.871%,12.24%
COc1ccc(CNc2cccnc2-n2cccn2)cc1OC,-4.868%,12.69%
COc1cc(C)nc(N2CCN(C(=O)COCC(F)(F)F)CC2)n1,-12.19%,7.362%
Cc1cnc(N2CCC3(CC2)CC3CNC(=O)N(C)C)nc1 (stereo not drawn),-13.32%,13.87%
Cc1cc(CNC(=O)CCc2c(C)nc3cc(O)nn3c2C)no1,-6.034%,20.8%
O=C(NCCN1CCOCC1)Nc1cc(F)ccc1-n1cccn1,23.59%,12.78%
CSc1ccc(NCC(=O)NCC2CC2)cc1F,33.72%,16.15%
Cc1nc(NC(=O)C(C)N(C)Cc2cccc(C#N)c2)sc1C (stereo not drawn),2.123%,6.504%
Cc1ccnc(C2(C)CCCN2S(=O)(=O)c2cccnc2)n1 (stereo not drawn),6.783%,9.688%
O=C(NCCc1ccc(I)s1)N1CCC1,21.86%,22.64%
O=C(c1cnccn1)N1C[C@@H]2CC[C@H](C1)N(S(=O)(=O)c1cccnc1)C2,-,5.042%
CNC(=O)CN1CCC(CN(C)Cc2ccc(C)cc2C)CC1,-32.03%,11.53%
CC(C)S(=O)(=O)NCC1CCCN(C(=O)c2ccc(F)cc2)C1 (stereo not drawn),-19.49%,14.38%
Cc1nn(C)c2nc(N(C)CC3CCN(CC(C)C)C3)sc12 (stereo not drawn),2.816%,19.78%
CC(C)C(=O)N1CCCC(c2cncc(Oc3cccnc3)n2)C1 (stereo not drawn),-7.817%,11.3%

The first 6 entries again:

SMILES	Mtb heat-shock	LdMetRS
CSCc1noc(CN2CCC3(CC2)CC(=O)N(CC=C(C)C)C3)n1	-4.541%	11.8%
COc1cc2c(cc1OC)S(=O)(=O)N(Cc1ccccc1)C2=O	29.89%	9.507%
CN(C)c1cc(C(=O)N2CCCCC2Cn2cccn2)ccn1 (stereo not drawn)	-7.013%	23.2%
O=C(NCc1ccco1)[C@H]1C[C@@H]2CCN(c3cccc(F)c3)C[C@H]2O1	-	7.945%
CC(C)(C)c1nc(C(C)(C)NC(=O)C2CC(=O)N(CC3CC3)C2)no1 (stereo not drawn)	3.818%	23.46%
CCCN1CCN(Cc2nccn2CC)C(C)C1 (stereo not drawn)	-12.47%	3.81%